Results from PubChem BioAssay AID2685 (National Center for Advancing Translational Sciences (NCATS), 2010).
The list shows a part of the results. Further columns of the screen follow, without active or inactive calls. The list favours compounds with an active or inconclusive main result. Words in brackets tell the shape of the fitted curve; partial curves, single points and poor fits give uncertain potencies.

Test: qHTS Assay for Lipid Storage Modulators in Drosophila S3 Cells;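 as to cell number change: cells counted by Cell Tracker Red CMTPX staining in the red channel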
Settings: BODIPY lipid droplet fluorescence, 18-24 h; for cell number change: measured here: cell count max response, cells fed with added oleic acid
Procedure, shortened: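 Drosophila S3 cells got compounds at several concentrations plus oleic acid (400 uM solution). Laser-scanning cytometry with 488 nm excitation read lipid droplets at 500-530 nm and cells at 575-640 nm. Percent activity was relative to 20 uM Triacsin C.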

[1] = measured here: lipid fluorescence (Fed channel) AC50, cells fed with added oleic acid
[2] = measured here: cell number channel AC50, cells fed with added oleic acid

Structure (SMILES): COc1cccc(C(C)NC(=O)Nc2cccc(C(F)(F)F)c2)c1 (stereo unspecified)
- cell number change: -27%

Structure (SMILES): Cc1ccc(CC2CC(=O)N(c3ccc4c(c3)OCCO4)C2=O)cc1 (stereo unspecified)
- cell number change: 5.41%
- AC50 [1]: 0.651 µM [falling, full curve, poor fit]

Structure (SMILES): CCOC(=O)CSc1nnc(CSc2nc3sc4c(c3c(=O)[nH]2)CCC4)n1C
- cell number change: -1.48%
- AC50 [1]: 3.66 µM [falling, single point]

Structure (SMILES): COC(=O)NC(Nc1sc2c(c1C(N)=O)CCCC2)(C(=O)OC)C(F)(F)F (stereo unspecified)
- cell number change: -8.87%

Structure (SMILES): Cc1ccc(S(=O)(=O)N2CCC(=O)N(C(CO)Cc3ccccc3)CC2)cc1 (stereo unspecified)
- cell number change: -12.9%
- AC50 [1]: 0.731 µM [falling, full curve, poor fit]

Structure (SMILES): C=CCOn1c(=O)c(-c2ccc(OC)cc2)[n+]([O-])c2ccccc21
- cell number change: -15.3%

Structure (SMILES): Cc1nnc(-c2ccccc2)o1
- cell number change: -58.4%
- AC50 [2]: 29.1 µM [falling, single point]
- AC50 [1]: 29.1 µM [falling, single point]

Structure (SMILES): COc1cccc(CNS(=O)(=O)c2ccc3c(c2)C(C)(C)C(=O)N3C)c1
- cell number change: -7.92%

Structure (SMILES): NC(=O)CCn1c(C(=O)c2cc(Cl)c(N)c(Cl)c2)c2ccccc2[n+]1[O-]
- cell number change: 1.5%

Structure (SMILES): COc1ccccc1N1CCN(C2CCCN(C(=O)c3ccoc3C)C2)CC1 (stereo unspecified)
- cell number change: 29.7%
- AC50 [1]: 6.51 µM [rising, single point]

Structure (SMILES): COc1cccc(C(=O)NNC(=O)/C=C/c2ccccc2)c1
- cell number change: -7.51%
- AC50 [1]: 0.651 µM [rising, single point]

Structure (SMILES): COc1cccc(-c2noc(Cn3nc(C(=O)O)c4ccccc4c3=O)n2)c1
- cell number change: 28.3%
- AC50 [1]: 4.61 µM [falling, partial curve]

Structure (SMILES): CCCNC(=S)N1CCC(NC(=O)Nc2ccc(C)cc2)CC1
- cell number change: 21.2%
- AC50 [1]: 0.82 µM [rising, full curve, poor fit]

Structure (SMILES): CCOc1ccc(-c2ccc(SCC(=O)N3CCN(c4ccccc4)CC3)nn2)cc1
- cell number change: 6.69%
- AC50 [1]: 5.8 µM [rising, partial curve, poor fit]

Structure (SMILES): CC(=O)Cn1ncc(N2CCOCC2)cc1=O
- cell number change: 27.7%
- AC50 [2]: 0.112 µM [rising, full curve, poor fit]

Structure (SMILES): Cc1cccc(CCNC(=O)C2CCN(S(=O)(=O)c3c(C)nn(C)c3C)CC2)c1
- AC50 [1]: 6.51 µM [rising, single point]

Structure (SMILES): O=C(CN1CCC(NC(=O)c2ccccc2F)CC1)NCc1ccc(F)cc1
- AC50 [1]: 0.13 µM [falling, full curve, poor fit]

Structure (SMILES): CCn1ncc(C2=NOC(C(=O)Nc3c(C)n(C)n(-c4ccccc4)c3=O)C2)c1C (stereo unspecified)
- cell number change: 11.3%
- AC50 [1]: 1.46 µM [falling, full curve, poor fit]

Structure (SMILES): COc1ccccc1/C=C/C(=O)Nc1ccc(N2CCOCC2)cc1
- cell number change: -15.1%
- AC50 [1]: 29.1 µM [falling, single point]

Structure (SMILES): CN1CCN(C2=C(Cl)C(=O)N(Cc3ccccc3)C2=O)CC1
- cell number change: 33.1%
- AC50 [2]: 4.11 µM [rising, full curve, poor fit]

Structure (SMILES): Nc1c(C(=O)NCc2ccco2)sc2nc3c(cc12)C(=O)CCC3
- cell number change: 118%
- AC50 [2]: 8.2 µM [rising, partial curve]
- AC50 [1]: 8.2 µM [rising, partial curve]

Structure (SMILES): COC(=O)c1ccc(N=NNc2ccccc2)cc1
- cell number change: 4.44%
- AC50 [1]: 1.16 µM [falling, single point]

Structure (SMILES): CCN=C1SC(C(=O)Nc2ccc(OC)cc2)CC(=O)N1CC (stereo unspecified)
- cell number change: -4.44%
- AC50 [1]: 0.731 µM [falling, partial curve, poor fit]

Structure (SMILES): Cc1ccc(N(C(=O)c2ccc(S(=O)(=O)N3CCCC3)cc2)C2C=CS(=O)(=O)C2)cc1 (stereo unspecified)
- cell number change: -18.1%
- AC50 [2]: 4.11 µM [falling, partial curve, poor fit]

Structure (SMILES): COC(=O)C1CCN(C(=O)C2CCN(C(=O)[C@H](C)NS(=O)(=O)c3ccc(C)cc3)CC2)CC1
- cell number change: 17.2%
- AC50 [2]: 2.06 µM [rising, partial curve, poor fit]
- AC50 [1]: 29.1 µM [rising, single point]

Structure (SMILES): COc1ccc(NC(=O)CN(C)C(=O)CCNS(=O)(=O)c2ccc(Br)cc2)cc1
- cell number change: 34.6%

Structure (SMILES): COc1ccccc1OCC(=O)NCc1cccs1
- cell number change: 30.2%
- AC50 [2]: 29.1 µM [rising, single point]

Structure (SMILES): Cc1ccc(NC(=O)COC(=O)CCc2c(C)nc3nc(N)nn3c2C)cc1C
- cell number change: 5.36%
- AC50 [1]: 0.366 µM [rising, full curve]

Structure (SMILES): O=C(NC1CCCC1)c1cc(-c2ccc(Cl)cc2Cl)on1
- cell number change: 11.5%
- AC50 [1]: 5.17 µM [falling, single point]

Structure (SMILES): CCNc1cc(O)ccc1C
- cell number change: -21.2%
- AC50 [2]: 1.16 µM [falling, single point]
- AC50 [1]: 23.1 µM [rising, partial curve, poor fit]

Structure (SMILES): O=C(COC(=O)Cn1cnc2ccccc2c1=O)NCc1ccccc1
- cell number change: -0.0343%
- AC50 [1]: 13 µM [falling, partial curve, poor fit]

Structure (SMILES): COc1cccc(NC(=O)CNC(=O)c2ccccc2)c1
- cell number change: 1.24%
- AC50 [2]: 6.51 µM [falling, single point]
- AC50 [1]: 6.51 µM [falling, single point]

Structure (SMILES): COc1ccccc1OCC(=O)NNC(=O)CSC(=S)N1CCCC1
- cell number change: 12.7%
- AC50 [1]: 0.517 µM [rising, partial curve, poor fit]

Structure (SMILES): CCOC(=O)c1c(N)nn(C(=O)C(C)C)c1-c1ccc(OC)cc1
- cell number change: 51.7%
- AC50 [2]: 0.206 µM [rising, full curve]
- AC50 [1]: 0.366 µM [rising, full curve]

Structure (SMILES): Cc1[nH]c2ccc(C(=O)N3CCN(c4ccccc4Cl)CC3)cc2c1C
- cell number change: 34%
- AC50 [1]: 0.58 µM [rising, single point]

Structure (SMILES): CCn1c(N2CCN(C(=S)NCC(C)C)CC2)nc2ccccc21
- cell number change: -145%
- AC50 [2]: 5.17 µM [falling, full curve]
- AC50 [1]: 6.51 µM [falling, full curve]

Structure (SMILES): COc1ccc(NC(=O)C2CCN(C(=O)C3CC(=O)N(c4ccc(C)cc4)C3)CC2)cc1 (stereo unspecified)
- cell number change: 18.1%
- AC50 [1]: 14.6 µM [rising, partial curve]

Structure (SMILES): COC(=O)c1cccc(CSc2nc3ccccc3[nH]2)c1
- cell number change: 7.38%
- AC50 [1]: 2.06 µM [rising, full curve, poor fit]

Structure (SMILES): CC(OC(=O)CCCC(=O)Nc1ccc(F)cc1)C(=O)c1ccccc1 (stereo unspecified)
- cell number change: 11.5%

Structure (SMILES): Cc1nn(Cc2ccc(C(=O)N3CCOCC3)o2)c(C)c1Br
- cell number change: 6.7%
- AC50 [2]: 6.51 µM [rising, single point]
- AC50 [1]: 6.51 µM [rising, single point]

Structure (SMILES): COc1ccc(/C=C/C(=O)OCC(=O)N2CCCCCC2)c(OC)c1
- cell number change: -7.35%
- AC50 [2]: 3.26 µM [rising, single point]

Structure (SMILES): CC(C)CCNC(=O)c1cc2c(s1)-c1ccccc1S(=O)(=O)C2
- cell number change: 21.7%
- AC50 [1]: 0.116 µM [rising, full curve, poor fit]

Structure (SMILES): CCc1cccc(NC(=O)CCc2nc3sc4c(c3c(=O)[nH]2)CCCC4)c1
- cell number change: 75.1%
- AC50 [2]: 14.6 µM [rising, partial curve]

Structure (SMILES): COc1ccc(NC(=O)c2scc(S(=O)(=O)C(C)C)c2N)cc1
- cell number change: -12.6%
- AC50 [1]: 0.651 µM [falling, single point]

Structure (SMILES): CCC(C)(C)C1CCC2(CC1)NC(=O)N(CC(=O)N1CCN(C(=O)c3ccco3)CC1)C2=O (stereo unspecified)
- AC50 [1]: 23.1 µM [rising, single point]

Structure (SMILES): c1ccc(COc2ccc(OCCCn3cncn3)cc2)cc1
- cell number change: -39.5%
- AC50 [2]: 16.4 µM [falling, single point]
- AC50 [1]: 1.64 µM [rising, partial curve, poor fit]

Structure (SMILES): Cc1ccc(-c2ccc(/C=N\NC(=O)C3C(=O)NCC3c3ccccc3)o2)cc1Cl (stereo unspecified)
- cell number change: -112%
- AC50 [2]: 20.6 µM [falling, single point]

Structure (SMILES): CCCCOc1ccc(N(CC(=O)NC2CCCCC2)C(=O)c2snc(C(N)=O)c2N)cc1
- cell number change: 8.33%

Structure (SMILES): COc1ccc(-c2noc(-c3ccc(Br)o3)n2)cc1OC
- AC50 [2]: 2.59 µM [rising, partial curve]

Structure (SMILES): O=C1COc2ccc(C(=O)COC(=O)C3CC(O)CN3S(=O)(=O)c3ccc(Cl)cc3)cc2N1 (stereo unspecified)
- cell number change: 35.9%
- AC50 [2]: 29.1 µM [rising, single point]
- AC50 [1]: 1.64 µM [falling, single point]

Structure (SMILES): COc1ccc(S(=O)(=O)N2CCN(c3cccc(C)c3C)CC2)cc1
- cell number change: -26.7%
- AC50 [1]: 6.51 µM [falling, single point]

Structure (SMILES): COc1ccc(C(C(=O)NC2CCCCC2)N(Cc2ccco2)C(=O)c2snc(C(N)=O)c2N)cc1 (stereo unspecified)
- cell number change: 7.66%
- AC50 [1]: 20.6 µM [falling, single point]

Structure (SMILES): Cc1cc(C)c(S(=O)(=O)N2CCN=C2c2ccccc2)c(C)c1
- cell number change: 9.2%
- AC50 [2]: 1.03 µM [rising, full curve]
- AC50 [1]: 6.51 µM [rising, partial curve, poor fit]

Structure (SMILES): CCn1c(SCC(=O)NC(C)C)nnc1-c1cccs1
- AC50 [2]: 1.16 µM [rising, full curve, poor fit]
- AC50 [1]: 0.0058 µM [rising, full curve, poor fit]

Structure (SMILES): O=C(NNC(=O)c1ccc(NC(=O)c2ccccc2)cc1)c1ccccc1
- cell number change: -10.8%

Structure (SMILES): O=C(NN=C1CCCC1)c1cccc(Br)c1
- cell number change: -13.9%
- AC50 [1]: 0.731 µM [falling, single point]

Structure (SMILES): COc1ccccc1-n1cc2c([N+](=O)[O-])cc([N+](=O)[O-])cc2n1
- cell number change: -2.78%
- AC50 [2]: 0.092 µM [falling, partial curve, poor fit]
- AC50 [1]: 0.58 µM [rising, single point]

Structure (SMILES): Cc1ccc(NC2CCCN(C(=O)CSc3ccncc3)C2)cc1C (stereo unspecified)
- cell number change: -12.4%

Structure (SMILES): Cc1cc(/C=C(\C#N)C(=O)NCc2ccccc2)cc(C)c1O
- cell number change: -21.8%
- AC50 [1]: 29.1 µM [falling, single point]
